No constants are given. Whether binding was seen depends on the method and setting. Binding seen in cells or lysates may run through a third protein. Here binding means that the protein was enriched with, or labelled near, the bait; the list need not be complete.
Target: T1, B-cell receptor-associated protein 31 (BAP31) (human (endogenous in HeLa)) (UniProt P51572)
T1 sequence: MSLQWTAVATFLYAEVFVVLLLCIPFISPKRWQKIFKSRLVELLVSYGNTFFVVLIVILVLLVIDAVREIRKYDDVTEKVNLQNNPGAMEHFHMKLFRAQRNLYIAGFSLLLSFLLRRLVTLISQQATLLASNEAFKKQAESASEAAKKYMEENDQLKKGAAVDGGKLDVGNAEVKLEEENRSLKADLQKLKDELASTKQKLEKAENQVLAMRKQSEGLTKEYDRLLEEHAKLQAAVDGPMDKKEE
Assay: affinity purification with mass spectrometry; co-immunoprecipitation with the anti-BAP31 monoclonal antibody FM-1; potential interacting proteins analysed by mass spectrometry

By UniProt entry, the sequences of proteins in these tests, tags left out.
UniProt Q0ZGT2: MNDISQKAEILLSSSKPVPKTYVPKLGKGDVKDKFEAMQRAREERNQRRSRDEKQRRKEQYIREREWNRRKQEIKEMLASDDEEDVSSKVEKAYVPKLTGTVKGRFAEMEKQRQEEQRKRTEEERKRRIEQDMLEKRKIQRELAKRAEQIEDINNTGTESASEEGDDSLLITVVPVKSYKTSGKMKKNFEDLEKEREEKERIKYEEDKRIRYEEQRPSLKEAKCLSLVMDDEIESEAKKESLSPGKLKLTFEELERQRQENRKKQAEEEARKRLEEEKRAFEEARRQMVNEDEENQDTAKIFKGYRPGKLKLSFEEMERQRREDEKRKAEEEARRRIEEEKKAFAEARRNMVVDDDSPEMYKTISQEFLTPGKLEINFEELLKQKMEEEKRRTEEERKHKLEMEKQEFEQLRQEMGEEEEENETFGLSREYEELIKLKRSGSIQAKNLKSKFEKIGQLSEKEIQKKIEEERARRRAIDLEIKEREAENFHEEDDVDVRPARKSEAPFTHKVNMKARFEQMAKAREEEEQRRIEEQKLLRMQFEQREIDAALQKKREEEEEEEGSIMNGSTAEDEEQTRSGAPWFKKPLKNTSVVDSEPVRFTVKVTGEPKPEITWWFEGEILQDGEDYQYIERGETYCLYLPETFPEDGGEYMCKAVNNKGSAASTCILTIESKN
UniProt Q16643: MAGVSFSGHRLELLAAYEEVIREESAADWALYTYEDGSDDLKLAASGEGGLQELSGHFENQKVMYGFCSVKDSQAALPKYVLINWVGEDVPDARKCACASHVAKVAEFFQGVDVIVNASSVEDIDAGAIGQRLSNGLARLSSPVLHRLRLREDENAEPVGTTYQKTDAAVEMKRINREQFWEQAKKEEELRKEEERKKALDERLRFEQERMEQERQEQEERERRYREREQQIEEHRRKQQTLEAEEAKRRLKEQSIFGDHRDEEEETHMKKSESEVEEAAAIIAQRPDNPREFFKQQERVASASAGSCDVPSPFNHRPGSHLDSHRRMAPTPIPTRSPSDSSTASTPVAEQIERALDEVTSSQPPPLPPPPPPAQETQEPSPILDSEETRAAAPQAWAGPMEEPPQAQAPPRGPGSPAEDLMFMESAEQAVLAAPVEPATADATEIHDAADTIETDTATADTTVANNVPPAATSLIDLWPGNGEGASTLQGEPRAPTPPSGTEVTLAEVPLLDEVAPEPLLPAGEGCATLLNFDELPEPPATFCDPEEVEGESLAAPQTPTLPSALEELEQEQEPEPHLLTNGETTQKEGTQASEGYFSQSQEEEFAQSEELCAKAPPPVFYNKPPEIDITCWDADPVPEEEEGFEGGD

Row | binding | Substance
1 | binds | Nexilin (from UniProt Q0ZGT2 1-675)
2 | binds | Drebrin (from UniProt Q16643 1-649)

From article PMC6052025
